These are yes or no findings as the source states them, for the method shown. In cells and extracts the contact can be indirect. These calls come from enrichment with a bait or labelling near it, and not all partners need be listed. Where a sequence is shown, tags or fusion partners need not be part of it.
Biological target: CTF derived from full-length 3FLAG-PC1-3HA
Test: affinity purification with mass spectrometry; crude mitochondrial fraction (mitochondria and MAMs) of Pkd1F/H-BAC vs WT mouse kidneys, crosslinked with 3 mM DTSSP, resuspended in PBS + 1% SDS, anti-HA magnetic beads, washes in TENT buffer, LC-MS/MS

Row | binding | Binder
1 | binds | Nicotinamide Nucleotide Transhydrogenase (NNT) (enzyme, UniProt Q61941 44-1086) CKSPVKPGIPYKQLTVGVPKEIFQNEKRVALSPAGVQALVKQGFNVVVESGAGEASKFPDDLYRAAGAQIQGMKEVLASDLVVKVRAPMVNPTLGAHEADFLKPSGTLISFIYPAQNPDLLNKLSERKTTVLAMDQVPRVTIAQGYDALSSMANISGYKAVVLAANHFGRFFTGQITAAGKVPPAKILIVGGGVAGLASAGAAKSMGAVVRGFDTRAAALEQFKSLGAEPLEVDLKESGEGQGGYAKEMSKEFIEAEMKLFAQQCKEVDILISTALIPGKKAPVLFSKEMIESMKEGSVVVDLAAEAGGNFETTKPGELYVHKGITHIGYTDLPSRMATQASTLYSNNITKLLKAISPDKDNFHFEVKDDFDFGTMSHVIRGTVVMKDGKVIFPAPTPKNIPEEAPVKPKTVAELEAEKAGTVSMYTKTLTTASVYSAGLTGMLGLGIVAPNVAFSQMVTTFGLAGIIGYHTVWGVTPALHSPLMSVTNAISGLTAVGGLALMGGHFYPSTTSQSLAALATFISSVNIAGGFLVTQRMLDMFKRPTDPPEYNYLYLLPGGTFVGGYLAALYGGYNIEEIMYLGSGLCCVGALGGLSTQGTARLGNALGMIGVAGGLAATLGGLKPDPQLLAQMSGAMAMGGTIGLTIAKRIQISDLPQLVAAFHSLVGLAAVLTCMAEYIVEYPHFAMDATSNFTKIVAYLGTYIGGVTFSGSLVAYGKLQGILKSAPLLLPGRHALNAGLLAASVGGIIPFMADPSFTTGITCLGSVSGLSTLMGVTLTAAIGGADMPVVITVLNSYSGWALCAEGFLLNNNLLTIVGALIGSSGAILSYIMCVAMNRSLANVILGGYGTTSTAGGKPMEISGTHTEINLDNAVEMIREANSIVITPGYGLCAAKAQYPIADLVKMLTEQGKKVRFGIHPVAGRMPGQLNVLLAEAGVPYDIVLEMDEINSDFPDTDLVLVIGANDTVNSAAQEDPNSIIAGMPVLEVWKSKQVIVMKRSLGVGYAAVDNPIFYKPNTAMLLGDAKKTCDALQAKVRESYQK
2 | binds | glucosidase II α-subunit (Ganab) (enzyme, UniProt Q8BHN3 33-944) VDRSNFKTCDESSFCKRQRSIRPGLSPYRALLDTLQLGPDALTVHLIHEVTKVLLVLELQGLQKNMTRIRIDELEPRRPRYRVPDVLVADPPTARLSVSGRDDNSVELTVAEGPYKIILTAQPFRLDLLEDRSLLLSVNARGLMAFEHQRAPRVPQESKDPAEGNGAQPEATPGDGDKPEETQEKAEKDEPGAWEETFKTHSDSKPYGPTSVGLDFSLPGMEHVYGIPEHADSLRLKVTEGGEPYRLYNLDVFQYELNNPMALYGSVPVLLAHSFHRDLGIFWLNAAETWVDISSNTAGKTLFGKMLDYLQGSGETPQTDIRWMSESGIIDVFLMLGPSVFDVFRQYASLTGTQALPPLFSLGYHQSRWNYRDEADVLEVDQGFDDHNMPCDVIWLDIEHADGKRYFTWDPTRFPQPLNMLEHLASKRRKLVAIVDPHIKVDSGYRVHEELRNHGLYVKTRDGSDYEGWCWPGSASYPDFTNPRMRAWWSNMFSFDNYEGSAPNLYVWNDMNEPSVFNGPEVTMLKDAVHYGGWEHRDIHNIYGLYVHMATADGLIQRSGGIERPFVLSRAFFSGSQRFGAVWTGDNTAEWDHLKISIPMCLSLALVGLSFCGADVGGFFKNPEPELLVRWYQMGAYQPFFRAHAHLDTGRREPWLLASQYQDAIRDALFQRYSLLPFWYTLFYQAHKEGFPVMRPLWVQYPEDMSTFSIEDQFMLGDALLIHPVSDAGAHGVQVYLPGQEEVWYDIQSYQKHHGPQTLYLPVTLSSIPVFQRGGTIVPRWMRVRRSSDCMKDDPITLFVALSPQGTAQGELFLDDGHTFNYQTRHEFLLRRFSFSGSTLVSSSADPKGHLETPIWIERVVIMGAGKPAAVVLQTKGSPESRLSFQHDPETSVLILRKPGVSVASDWSIHLR

Source: paper PMC10063565
